Reference: the supplement of paper PMC5949888
Most values lie at the floor of the assay. Slopes are relative: functional sequences can read slightly below zero.

These substances were tested on Saccharomyces cerevisiae PS128 hsf1 delta, HSF1(1-493) fusion (assay: growth estimate (transactivation domain function in HSF1 fusion, heat-shock survival) (a.u. (slope of normalised read count over time)); higher = stronger growth at 37°C, i.e. more transactivation activity). Settings: library: random library.

Substance	growth estimate
RFISCWQGGTLK	< -0.25
GILLPGLQRSVWVLPVEETR	< -0.25
ECSVSTTLSS	< -0.25
GQAPRPKGSASVATGTETGE	< -0.25
DEHVISFPSRLKKNT	< -0.25
APLSLSYDIEISFCGSHCPS	< -0.25
PVRYSGASSGAIPRKAWKRL	< -0.25
GYVQI	< -0.25
AEEASA	< -0.25
SAGQGRLLVCIPRAVKDGDG	< -0.25
SQGGFPRMRTTGIRKYPVD	< -0.25
QWPIMCTTQIYGCTDTNKRN	< -0.25
NHVAVVNANISVSESGAASP	< -0.25
RGTIKIVQKVVMLRQIVQLT	-0.246
VGSVFRAQWRLERPSACRGG	< -0.25
QDPFLTS	< -0.25
PSLP	< -0.25
GMTQ	< -0.25
CTAMFALIIVARRARNAHTS	< -0.25
PLVPG	< -0.25
LWCCPTYGWVTMRLKYTVSL	< -0.25
FRSKWRAANMLTYHVTVATR	< -0.25
KEPGLWASNRTVYITRCTHG	< -0.25
IHLAVRQVCMGPRN	< -0.25
LKINICLSKRQRALGLRFVP	-0.25

Substance	growth estimate
EFASVRIGIVHAL	< -0.25
IVMQCLRLKCGIGIVHKGFS	< -0.25
TKIS	< -0.25
YVSVLNAGKRLIPGWLCCNP	< -0.25
RGYDVTVGACQRDSRRDYRA	< -0.25
IYIFGPAQIRRPGGGSRSTV	< -0.25
IWLAR	< -0.25
RYSKELSTGIVGLMARGRLI	< -0.25
EADGI	< -0.25
LRGVCEAIIALCFTTSPGSA	< -0.25
VQETTCVCGRLEHI	< -0.25
CVLSGTCEFYFRSV	-0.231
HLFGTRVLVKLWGILVRMQY	< -0.25
GNFESLAVSDRSRVVPPSRP	< -0.25
YLCNFATGTGAESRIVKGLV	< -0.25
TTNRSIVAVNHD	< -0.25
KHLSSNPGKD	< -0.25
GPQVTSPWFQPRWLDFTKGF	-0.246
LGELALLLWEIAV	< -0.25
WAGTEPKWGDWVPISESSGK	< -0.25
AREVIGMDFDEWTCPVILHE	-0.145
SDAMQHRK	< -0.25
TIYL	< -0.25
VEGSKVTTD	< -0.25
WHVVRRTPLAQFCFIARKLV	< -0.25

Substance	growth estimate
DSHP	< -0.25
LYVGNFAGVASSKVIGYARL	< -0.25
GSKIKPVLSDSGNSPIHGAL	< -0.25
GLLEALIRYVRFT	< -0.25
TDVGL	-0.245
TYLDDSRRTTGLGHVV	< -0.25
PRWTVPHHP	< -0.25
VYRAVHRPRGMRAGQLHICD	< -0.25
SPLHASTG	< -0.25
QSCVEYKVGVMYNGDHRTMR	< -0.25
PKYLLLHYEA	-0.209
YEVWTQGLKTPRCTRLVSGS	< -0.25
RLSKNRRRVFESWWSRTTAW	< -0.25
GSIAASVG	< -0.25
RWLGLCSEFYRPPNSIDGRP	< -0.25
SKRGMVRFTVRLVRVKVPSG	< -0.25
CYLRACRS	< -0.25
PGNIFTKALTNLYRLSSRDA	< -0.25
VHFPVSQLPV	< -0.25
LQLPPPIPPWFSKSSGARHA	< -0.25
GSGLTEPESILFCYKTGSRI	< -0.25
DITAGELRIECASPRPAFSS	< -0.25
LMRAVARERTRSEVSLTIWL	< -0.25
ARCHLRAKKLWICCVLISGH	< -0.25
IPLRGP	< -0.25

Reprinted at random: four records from the list, in no set order.
Substance	growth estimate
DSHP	< -0.25
LYVGNFAGVASSKVIGYARL	< -0.25
RWLGLCSEFYRPPNSIDGRP	< -0.25
LMRAVARERTRSEVSLTIWL	< -0.25

Remaining list, next part:

Substance	growth estimate
VHY	< -0.25
KCGISESYHLR	< -0.25
PVVASEGARGSLRSQWGMTL	< -0.25
RVFPSYATTRIGQYLRETGG	< -0.25
NHGGVGDIRSDHGLSGVHVC	< -0.25
AWL	< -0.25
AVLLLNKEQGLQSNKLKRGG	< -0.25
WKRPRGFYVFETSKSGPRQT	< -0.25
HSWLRVVPIRHMYEYVVW	-0.25
VSQGLNQ	< -0.25
GLCCWNV	< -0.25
LVRISCLS	< -0.25
NLLIATSATLGPTPMFAPPP	< -0.25
SCAHGFKW	< -0.25
LHSLTCGPVRLKTSSRAIIK	< -0.25
IILPKSHLPACALDLCCVSR	< -0.25
ICDG	< -0.25
QRSRTIWGIDIRRAQRTFLC	< -0.25
VNHETYE	< -0.25
RLRHGTN	< -0.25
VRL	< -0.25
QCV	< -0.25
VPGSRANFPFL	< -0.25
TERYLSIGIGGTPGTDQPSK	< -0.25
THGPTLGWDRC	< -0.25

In another format: results already given
Substance | growth estimate
RLRHGTN | < -0.25
VRL | < -0.25
QCV | < -0.25

Remaining list, next part.

Substance	growth estimate
VGFRVLLFQKNGIGTSPVQS	< -0.25
WLRGASSIESE	< -0.25
SGRGRSVAIALGFRESWVN	< -0.25
CVYLITTEEEATS	< -0.25
CLHVKVVHVNHKRLWWILST	< -0.25
WWDYLSR	< -0.25
GSTTGGPARFTLCVYRKA	< -0.25
RRDDWWCAEWPEKSSERRGG	< -0.25
GLACLARVAIGGFIGAITRV	< -0.25
RPQ	< -0.25
VPRDEMNWSVALMATVPMFV	< -0.25
VDRG	< -0.25
EDYCRRNTCSSDTSWH	-0.246
SNCQADRLCCTLGLIICYAP	< -0.25
SRPFNE	< -0.25
HLVTSETSIWAKSCLLDREG	< -0.25
IIMGERGKTGSTMGGF	< -0.25
IAVEWWTTKVRTLIVQSA	< -0.25
QRLTESGSVHKRLNDHPRQP	< -0.25
RMRGFIVILVYGRGLDRILQ	< -0.25
ASTL	< -0.25
ILQRTVGGSEVFRVRRGTTA	< -0.25
GLCTVHAQHHSYIKGG	< -0.25
LCPIGCPVGISGPSS	< -0.25
LLWVSTRVHTRKVNMTLKQH	< -0.25

Substance	growth estimate
RTIS	< -0.25
VDLISRRMSFVISLLQGSRR	< -0.25
NVSLRPKSAEGTASHARLRS	< -0.25
VRNKAEIGPHQFKRLFRAWS	-0.15
FGHDQY	< -0.25
GSHTGQMHLALFREVD	< -0.25
SGQEGKGGSGG	< -0.25
HVPSLL	< -0.25
FVYPFGWHRPTRSL	< -0.25
KGNTSADAGRGYRRASQFIG	< -0.25
ILRSNGDPSHVRHII	< -0.25
CSLSIRLDSNVGPSSGRSTT	< -0.25
VTCAGLHYPE	-0.245
IAFRNIIMAHRTKCGLTQ	< -0.25
IAGSFVGLYGVHRRHTSTQS	< -0.25
HQA	< -0.25
NSLAAG	< -0.25
SSPSLRSRAE	< -0.25
HRVPAGISVEVHLSRILCYA	< -0.25
RYIYVEGCEIRLSQAMGQTS	< -0.25
VSCRI	< -0.25
IGITKLNGRFGTSSTSDLRH	< -0.25
AVHRRLSTYRPEPYL	< -0.25
AVLN	< -0.25
QRWMATTGVLTTIKNILSTR	< -0.25

Single values from the results shown:
IAGSFVGLYGVHRRHTSTQS – growth estimate: < -0.25
IGITKLNGRFGTSSTSDLRH – growth estimate: < -0.25
QRWMATTGVLTTIKNILSTR – growth estimate: < -0.25

(cont.)

Substance	growth estimate
GLRAIFSGTSLAESNLLGPA	< -0.25
GFVDS	< -0.25
YQPLGFDGSDTMDAFVMTLG	-0.102
RYLYGVGPNPRFFSMLPVDG	< -0.25
FITPSGTQRCSSSGVPRKWR	< -0.25
RSIFYVWVAIALRP	< -0.25
KGIAI	< -0.25
AYLGDPFSNRTDN	< -0.25
VTYALDQT	< -0.25
GPEWYVTGDVQRCRWRTLSY	< -0.25
LCPKTPVFGHRSYLREARGD	< -0.25
GCRTTFTSPLPLLE	< -0.25
WPY	< -0.25
TGVESVYEVF	< -0.25
PLSGNGQVRLPSRGNPFNFN	< -0.25
ARATSQKQEGCPT	< -0.25
GKP	< -0.25
GCGVCLLVSQGLPAGAHEPG	< -0.25
FWWHQYRVLIMAWEYKI	< -0.25
GYQFTTTLGTECKRAKVSGG	-0.243
HDGGPHGSRILASLRMGFTE	< -0.25
ACILYCEMA	< -0.25
FIHIIKNSGDGD	< -0.25
WRNLSLL	< -0.25
IVEGYCGYPLHIITIVFSLT	< -0.25

Substance	growth estimate
DKGGLLPCYG	< -0.25
TRFRFNMFRYQQFRTDTTGR	< -0.25
VSYLSR	< -0.25
SRVTKWDRLLVGPALVARGG	< -0.25
PKS	< -0.25
QTWPFIDSYHET	10.3
LEPIWH	< -0.25
TDQREGPYFPVVRSVMKYR	< -0.25
VIWTESAGALVIPVRNSIIG	< -0.25
GATLSTLFIQVYVMTQA	< -0.25
SPLALGNVCESSAS	< -0.25
SPGTRGVTKLHS	< -0.25
ASWSQRTCMWQRPRRCF	-0.174
MSIREKSDKRCAVAR	< -0.25
MSYRHSPLTGKRCSGSQQSH	< -0.25
TWGQTWIPL	-0.11
CKYAVSAP	< -0.25
YSEGGDRTLSPLPKVADSS	< -0.25
SSCDV	< -0.25
GAGANHRRLREPGGVRNGVY	< -0.25
SNWVE	< -0.25
VDITNFEGCVMGVTSLFESR	< -0.25
RGEFAGKWGYPVTGQGPQIG	< -0.25
WRGRINWLH	< -0.25
HVEVIAYPKRPAACGTPIVP	< -0.25
